Results deposited as PubChem BioAssay AID504804 (Drosophila RNAi Screening Center, 2011)
Assay: 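dsRNAs that improve Kc cell survival under doxorubicin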 (primary screen). Cell system: Drosophila Kc cells. Reagent: long dsRNA against Drosophila genes, 0.5 µg dsRNA per well. Time to read-out: 96 h (48 h knock-down, then 48 h drug). Conditions: doxorubicin 5 µg/ml for 48 h, added 48 h after dsRNA. Measured: 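Luminescent ATP counts per replicate, not normalised, reflecting viable cells after 48 h dsRNA knock-down followed by 48 h of 5 µg/ml doxorubicin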. Scale: raw ATP luminescence: higher = more viable cells, protection from doxorubicin. Active means: 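Active when both duplicate wells lie at least 2 SD above the plate mean and protection is confirmed by rescreening and independent dsRNAs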.
The screen tested about 19,000 reagents; this is an unselected part of those that have a named target and a result. Over the whole deposit, 47 (0.25%) were called active. 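Signals are raw, not normalised; exact z-scores behind calls not deposited; actives needed confirmation, so some wells reaching 2 SD are inactive.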 Unmarked entries are inactive. The numbers tell different reagents against one gene apart. A plus sign joins genes that one reagent is predicted to hit.

Gene	reagent	raw ATP luminescence, replicate 1	raw ATP luminescence, replicate 2
Naus (Nausicaa)	1	71003	91360
Obp58c (Odorant-binding protein 58c)	1	42673	51100
Mitf	1	52220	56510
Mitf	2	1.95e5	1.90e5
Gr8a (Gustatory receptor 8a)	1	2.97e5	2.89e5
S1P (Site-1 protease)	1	79977	70420
CG10587	1	71823	67117
ab (abrupt)	1	10463	14283
Phm (Peptidylglycine-alpha-hydroxylating monooxygenase)	1	77773	94867
Wee1 (Wee1 kinase)	1	32440	36700
CG32668	1	1.99e5	2.56e5
Coq2 (Coenzyme Q biosynthesis protein 2)	1	61570	63600
CG17328	1	79377	91793
cic (capicua)	1	21750	20150
cic (capicua)	2	22890	25120
cic (capicua)	3	43170	42670
cic (capicua)	4	3.12e5	2.90e5
CG32568	1	2.90e5	3.37e5
GstD10 (Glutathione S transferase D10)	1	58283	49203
Gdh (Glutamate dehydrogenase)	1	36517	51460
CG14864	1	81770	72660
Clbn (Caliban)	1	60140	68700
CG31275	1	59480	64300
Dpck (Dephospho-CoA kinase)	1	49777	62913
CG30428	1	95057	93347
STUB1 (STIP1 homology and U-box containing protein 1)	1	47277	48100
CG34205	1	79173	68153
CG8661	1	2.78e5	2.25e5
sll (slalom)	1	50250	49243
CG17440	1	3.54e5	1.29e5
CG17819	1	69360	73470
Prosbeta3 (Proteasome beta3 subunit)	1	58257	33483
obst-F (obstructor-F)	1	65420	64030
TSG101 (Tumor susceptibility gene 101)	1	45960	40193
CG7387	1	41590	52620
CG4658	1	39017	53193
dve (defective proventriculus)	1	39297	56070
CG14302	1	53620	50790
CG15471	1	41590	45060
CG14805	1	70900	59080
Galphas (G protein alpha subunit s)	1	74510	66650
BTBD9 (BTB (POZ) domain containing 9)	1	3.86e5	3.33e5
Gas41	1	89330	53913
CG14282	1	53480	64360
CG13445	1	36197	27223
CG30034 (retired record)	1	82980	89263
CG15529	1	51130	55550
Arts + Apl	1	50737	40180
Exn (Ephexin)	1	23750	21477
Exn (Ephexin)	2	50050	36933
r (rudimentary)	1	3.78e5	3.81e5
r (rudimentary)	2	4.14e5	3.50e5
CG34434	1	23660	44310
CG13954	1	60397	79383
neb (nebbish)	1	91637	90633
CG14647	1	17673	25180
CG32052	1	71270	73870
